In PubChem BioAssay AID485298 (National Center for Advancing Translational Sciences (NCATS), 2010):
About 740 (0.23%) of roughly 320,000 compounds were called active. Inconclusive results, whose numbers are uncertain, are shown with a selection of clear calls. Calls come from the whole dose curve; as a rule, active = well fitted activation curve with a large enough effect; inconclusive = small, poorly fitted or top-dose-only effect; inactive = no such curve, though single readings can be large or run the other way. Potencies of inconclusive entries are doubtful fits and often do not repeat.
Potency is the fitted concentration of half-maximal effect.

Assay: qHTS Assay for Small Molecule Inhibitors of Mitochondrial Division or Activators of Mitochondrial Fusion; note: nearly all actives have a fitted effect of over 45% in size;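 for growth rescue (activation): temperature-sensitive fusion mutants such as fzo1-1 at 37 °C on non-fermentable ethanol glycerol medium; % of control where 0% means no effect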
Settings: S. cerevisiae fusion-defective mutant growth rescue, CellTiterGlo 48 h; growth rescue (activation): at 46.1 µM (top of the series) unless noted
In short: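 Yeast fusion mutant, YPEG (non-fermentable carbon), compound, 48 h at 37C non-permissive; CellTiterGlo added, 10 min RT, luminescence read. Rescued growth = division inhibition.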
In the case of `Cn1cc(C(c2ccccc2OCC(=O)O)c2cn(C)c3ccccc23)c2ccccc21`, the “growth rescue (activation)” value is reported as inactive: -1.38%.
In the case of `CC1(C)Cc2c(c(N3CCOCC3)nc3sc(C(N)=O)c(N)c23)CO1`, the “growth rescue (activation)” value is reported as inactive: -0.377%.
With `COc1cc(CCC(=O)Nc2ccc(Cl)c(C(F)(F)F)c2)cc(OC)c1OC` the “growth rescue (activation)” value was inactive: -8.45%.
For `CCOc1ncccc1C(=O)NNC(=O)c1ccc(NS(=O)(=O)c2cccs2)cc1`, the “growth rescue (activation)” value was inactive: -2.51%.
In the case of `CC(=O)Cn1cnc2c(sc3nc(C)cc(C)c32)c1=O`, the “growth rescue (activation)” value is reported as inactive: -8.01%.
With `O=C(Nc1cc(Sc2nc3ccccc3s2)cc([N+](=O)[O-])c1)c1cccc(F)c1F` the Potency was inconclusive: 8.91 µM [activator, partial curve].
For `CCOC(=O)C1=C(c2ccccc2)NC(N)=NC1c1ccc(OCc2ccc(C(=O)OC)cc2)cc1` (stereo not given), the “growth rescue (activation)” value was inactive: -1.72%.
In the case of `O=C(Nc1nc(-c2cccs2)cs1)c1cccc(S(=O)(=O)N2CCCCC2)c1`, the Potency is reported as inconclusive: 11.2 µM [activator, partial curve].
In the case of `CCOC(=O)c1sc(NCCNc2nc(C)c(C(=O)OCC)s2)nc1C`, the “growth rescue (activation)” value is reported as inactive: 1.69%.
With `CCOC(=O)c1sc(N/N=C/c2ccc(N(C)C)cc2)nc1C` the “growth rescue (activation)” value was inactive: -4.19%.
With `CCOc1c(Br)cc(C(N)=O)cc1OCc1ccccc1` the Potency was active: 11.2 µM.
With `CN=c1scc(-c2ccccc2Br)n1/N=C/c1ccc[nH]1` the Potency was inconclusive: 35.5 µM [activator, single point].
In the case of `Cc1ccc2oc(C(=O)N3CCN(Cc4nccn4C)CC3)c(C)c2c1`, the Potency is reported as inconclusive: 6.31 µM [activator, single point].
In the case of `COc1ccccc1C(C)NC(=O)Cc1ccc(S(=O)(=O)N2CCOCC2)s1` (stereo not given), the “growth rescue (activation)” value is reported as inactive: -3.55%.
For `CC(C)c1ccc(C2CC(=O)c3cnc(NC(=O)c4ccco4)nc3C2)cc1` (stereo not given), the Potency was inconclusive: 11.2 µM [activator, partial curve].
With `COC(=O)c1ccc(N2CCc3ccccc32)c([N+](=O)[O-])c1` the Potency was inconclusive: 35.5 µM [activator, partial curve].
For `O=S(=O)(Oc1ccc(C(=S)N2CCOCC2)cc1)c1ccc(Cl)cc1`, the “growth rescue (activation)” value was inactive: -0.484%.
In the case of `CSCCC(NS(=O)(=O)c1cccc(C(F)(F)F)c1)C(=O)N(C)CCOc1ccc(Cl)cc1` (stereo not given), the Potency is reported as inconclusive: 22.4 µM [activator, single point].
With `O=C(Nc1ccccc1)c1ccccc1Oc1ccc(C(F)(F)F)cc1[N+](=O)[O-]` the Potency was inconclusive: 35.5 µM [activator, single point].
For `COc1ccc(C2c3[nH]c4ccccc4c3CCN2Cc2ccoc2)c(F)c1` (stereo not given), the Potency was inconclusive: 10 µM [activator, partial curve].
For `COc1cccc(C(Nc2ccccn2)c2c(NC(=O)c3ccco3)sc(C)c2C)c1` (stereo not given), the Potency was inconclusive: 11.2 µM [activator, partial curve].
With `Cc1ccc(/C=C/C(=O)NCC2COc3ccccc3O2)o1` (stereo not given) the “growth rescue (activation)” value was inactive: -5.44%.
For `Cc1cc(C(=O)COc2ccccc2Cl)c(C)n1-c1ccc2c(c1)OCO2`, the Potency was inconclusive: 15.8 µM [activator, partial curve].
With `O=C(/C=C/c1cccs1)Nc1cccc(NC(=O)/C=C/c2cccs2)n1` the Potency was active: 14.1 µM.
In the case of `CC(C)(C)NC(=O)CSc1nc2ccc(Nc3nc(N4CCOCC4)nc(N4CCOCC4)n3)cc2s1`, the Potency is reported as inconclusive: 17.8 µM [activator, partial curve].
With `N#Cc1c(N)nc(SCc2ccccn2)c(C#N)c1-c1cccs1` the Potency was inconclusive: 22.4 µM [activator, single point].
With `Cc1ccccc1OCc1n[nH]c(=S)n1Cc1ccccc1` the Potency was inconclusive: 17.8 µM [activator, partial curve].
With `COC1(C)CC2C(CC1OC(=O)c1cc([N+](=O)[O-])cc([N+](=O)[O-])c1)C2(C)C` (stereo not given) the Potency was inconclusive: 14.1 µM [activator, partial curve].
With `CCCCOC(=O)Cc1c(O)c2ccccc2[nH]c1=O` the “growth rescue (activation)” value was inactive: 20.6%.
In the case of `O=C(Nc1cccn(Cc2c(Cl)cccc2Cl)c1=O)c1ccc(Cl)cc1Cl`, the “growth rescue (activation)” value is reported as inactive: 0.899%.
In the case of `Cc1nc(-c2ccc(Cl)cc2)sc1C1(C)CC(c2cccc([N+](=O)[O-])c2)=NO1` (stereo not given), the “growth rescue (activation)” value is reported as inactive: 8.42%.
For `C=CCn1c(=O)c2c(nc(-c3ccc(S(=O)(=O)O)cc3)n2C)n(C)c1=O`, the Potency was inconclusive: 0.0116 µM [activator, full curve, poor fit].
With `Cc1ccc(C(=O)NCC(=O)NCCCc2ccccc2)s1` the Potency was inconclusive: 20 µM [activator, partial curve, poor fit].
With `COc1ccc(Cl)cc1NC(=O)CCc1ccccc1` the “growth rescue (activation)” value was inactive: 3.82%.
For `O=C(c1cc(COc2cccc(C(F)(F)F)c2)on1)N1CCC(c2ccccc2)CC1`, the “growth rescue (activation)” value was inactive: 6.05%.
In the case of `CN(C)C/C=C/C(O)(c1ccccc1)c1ccccc1`, the “growth rescue (activation)” value is reported as inactive: -5.19%.
In the case of `O=C(CCC(=O)N(CC(=O)NC1CCCCC1)c1ccc2c(c1)OCCO2)Nc1ccccn1`, the Potency is reported as active: 22.4 µM.
In the case of `Cc1cccc(NC(=O)c2ccc(Cl)c(S(=O)(=O)N3CCCCCC3)c2)n1`, the Potency is reported as inconclusive: 20 µM [activator, single point].
For `Brc1cccc(-c2n[nH]c(-c3ccccc3)n2)c1`, the Potency was inconclusive: 2.51 µM [activator, full curve, poor fit].
For `COc1cccc(CN(C)C(=O)c2sccc2-c2ccccc2)c1OC`, the “growth rescue (activation)” value was inactive: 0.924%.
With `Cc1ccc(C)c(-c2nnc(NC(=O)COc3ccccc3)o2)c1` the Potency was inconclusive: 25.1 µM [activator, single point].
In the case of `O=C(Nc1ccccc1)Nc1ccc(-n2ccc(C(F)(F)F)n2)cc1`, the “growth rescue (activation)” value is reported as inactive: -4.41%.
For `COc1ccc2c(c1)CCc1c(C(=O)Nc3ccn(Cc4ccc(C)cc4)n3)noc1-2`, the “growth rescue (activation)” value was inactive: -0.457%.
For `C/C(=N\NC(=O)c1cccc(N/N=C(\C)c2ccco2)c1)c1ccco1`, the “growth rescue (activation)” value was inactive: 5.58%.
In the case of `COc1ccc(NC(=O)CCNS(=O)(=O)c2ccc3c(c2)CC(C)N3C(C)=O)cc1` (stereo not given), the Potency is reported as inconclusive: 6.31 µM [activator, partial curve].
With `COc1ccc2c(OC)cc(-c3ccccc3)nc2c1` the Potency was inconclusive: 22.4 µM [activator, single point].
For `C=CCc1cccc(CNc2ccc(S(=O)(=O)Nc3nccnc3OC)cc2)c1O`, the “growth rescue (activation)” value was inactive: 7.26%.
With `COc1ccc(N2CCN(C(CNC(=O)C(=O)NCC3CCCO3)c3ccco3)CC2)cc1` (stereo not given) the Potency was inconclusive: 5.01 µM [activator, single point].
With `O=C(CNC(c1ccccc1)c1ccccc1)Nc1ccccc1-c1ccccc1` the Potency was inconclusive: 12.6 µM [activator, partial curve].
With `COc1ccccc1NC(=O)N(Cc1ccccc1)c1ccccn1` the Potency was inconclusive: 20 µM [activator, single point].
For `O=C(COc1ccccc1-c1ccccc1)N/N=C/c1ccncc1`, the Potency was inconclusive: 12.6 µM [activator, partial curve].
In the case of `O=C(O)c1cc2ccccc2c2cc(Br)ccc12`, the Potency is reported as active: 11.2 µM.
With `CCCCCc1ccc(-c2ccc(=O)[nH]n2)cc1` the Potency was inconclusive: 20 µM [activator, single point].
In the case of `CCCc1c(C)nc2c(OC)cccc2c1SCC(=O)O`, the Potency is reported as inconclusive: 11.2 µM [activator, partial curve].
For `COC(=O)CSc1nc2sc3c(c2c(=O)n1-c1ccc(OC)cc1)CCN(C)C3`, the “growth rescue (activation)” value was inactive: 3.68%.
For `Cc1cc(Br)cc(Cl)c1OCC(=O)N1CCN(C(=O)c2ccco2)CC1`, the “growth rescue (activation)” value was inactive: -3.26%.
With `O=S(=O)(NCC1CCN(Cc2ccccc2)CC1)c1ccccc1C(F)(F)F` the Potency was inconclusive: 10 µM [activator, partial curve].
With `Cc1ccc(S(=O)(=O)N2CCN(c3nc(C(C)C)c4c(c3C#N)CC(C)(C)OC4)CC2)cc1` the “growth rescue (activation)” value was inactive: -1.03%.
For `C/C(=N\NC(=O)c1cccs1)c1cccnc1`, the Potency was inconclusive: 6.31 µM [activator, single point].
In the case of `CCOc1ccccc1NC(C)C(=O)Nc1cc(C(F)(F)F)ccc1N1CCOCC1` (stereo not given), the Potency is reported as inconclusive: 14.1 µM [activator, partial curve].
In the case of `Cc1ccc(C(C)NC(=S)NCc2ccc(F)cc2)cc1C` (stereo not given), the “growth rescue (activation)” value is reported as inactive: -0.733%.
In the case of `Cc1ccc(S(=O)(=O)N(C)CC(O)Cn2c3ccccc3c3ccccc32)cc1` (stereo not given), the Potency is reported as inconclusive: 12.6 µM [activator, partial curve].
In the case of `CCCCn1c(=N)c(S(=O)(=O)c2ccc(C)cc2)cc2c(=O)n3cc(C)ccc3nc21`, the “growth rescue (activation)” value is reported as inactive: -0.366%.
For `O=C(COc1ccc(Cl)cc1)N1CCN(Cc2ccc3c(c2)OCO3)CC1`, the Potency was inconclusive: 35.5 µM [activator, single point].
For `CNc1ccc(Br)cc(C(=O)/C=C/c2ccc(OC)cc2OC)c1=O`, the Potency was inconclusive: 35.5 µM [activator, single point].
For `CCNc1ccc(S(=O)(=O)N(C)C)cc1[N+](=O)[O-]`, the “growth rescue (activation)” value was inactive: 0.624%.
For `O=C(Cc1cccc2ccccc12)N1CCN(c2ncccn2)CC1`, the Potency was inconclusive: 35.5 µM [activator, single point].
With `CC1CCCN(c2cc(N(C)CCO)c([N+](=O)[O-])c3nonc23)C1` (stereo not given) the “growth rescue (activation)” value was inactive: 0.801%.
With `O=c1cc2c(nn1Cc1ccc(Cl)cc1Cl)-c1ccccc1CC2` the Potency was inconclusive: 11.2 µM [activator, partial curve].
With `CCCCCCSc1nnc(-c2cnn(-c3ccccc3)c2-n2cccc2)n1C` the Potency was inconclusive: 20 µM [activator, single point].
With `O=C(CC(c1ccccc1)c1ccco1)N1CCCCC1` (stereo not given) the “growth rescue (activation)” value was inactive: -4.97%.
With `COC(=O)c1ccccc1NC(=O)NCc1c(C)nn(C)c1C` the Potency was inconclusive: 4.47 µM [activator, single point].
In the case of `Cc1occc1C(=O)Nc1ccc2c(c1)OCO2`, the “growth rescue (activation)” value is reported as inactive: -5.78%.
For `CCN(CC)C(=O)c1c(-c2ccccc2)oc2ccc(OC)cc12`, the Potency was inconclusive: 35.5 µM [activator, single point].
For `Cc1ccc(/C=N/n2c(C)nc3ccccc3c2=O)s1`, the “growth rescue (activation)” value was inactive: -2.88%.
